Measurements taken from patent US6114314A (priority 1994, dated 2000).
Where two headings read alike, the source gives them in different places.

System: tumour

## CCO [ethyl alcohol]
Carried by hyaluronic acid and/or salts thereof
  dispersion of ethyl alcohol throughout the tumour: dispersion of the ethyl alcohol throughout the tumour
Injected directly, without hyaluronic acid
  dispersion of ethyl alcohol throughout the tumour: not dispersed throughout the tumour
